Laboratory results taken from patent US11384120B2, “Peptide capable of binding to biomarker for inflammatory and metabolic diseases, and use thereof” (NIBEC CO., LTD., priority 2019, dated 2022).
Part of at least one peptide drawing is inferred or uncertain, most often the ends. Where no end group is shown, it is not given here.

Legend:
[1] = test system: inflammatory bowel disease model; experiment: inflammatory bowel disease animal model (5% DSS); type: in vivo, ICR mice; conditions: 5% DSS 10 days, IP injection daily for 10 days, versus DSS-induced group, FIG. 6
[2] = test system: MCD mouse model; experiment: non-alcoholic steatohepatitis animal model (MCD diet); type: in vivo, C57BL/6J mice; conditions: MCD diet mice, peptide 20 or 80 mg/kg, versus MCD diet-fed group

In the case of “AESPLTNRGWNP [SEQ ID NO: 1, AESPLTNRGWNP]”, the “damage of intestinal villi (H&E staining)” value [1] is reported as “preserved without damage”, the “number of inflammatory cells in colon (H&E staining)” value [1] is reported as “reduced” and the “number and size of inflammation and fat particles in liver tissue (H&E staining)” value ([2]; FIG. 5A) is reported as “decreased”. For the same sequence, the “fibrosis in liver tissue (Sirius red and Masson trichrome staining)” value ([2]; FIGS. 5B and 5C) was “significantly reduced”.
